# ± gives the standard deviation. Only a part is listed here, and it is no random draw. Many entries were measured with a wide error.
# Test system: MILI (PIWIL2) piRISC loaded with piRNA #2 (26 nt)
# Assay: pre-steady-state target cleavage rate (min^-1); MIWI and MILI are mouse PIWI proteins and EfPiwi is from a freshwater sponge; tags in brackets are library labels; higher = faster piRNA-guided slicing of the target
# Settings: guide: piRNA #2 5'p-UUAGGUAACCCAGUAGAUCCAGAGGA; auxiliary factor: 500 nM mouse GTSF1
# Summary of the method: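 A transcribed, DNA-blocked target RNA library […] was incubated at 33 °C for 0–8 or 0–960 min with 1 nM active affinity-purified piRISC carrying one synthetic guide, in HEPES–potassium acetate buffer with or without 500 nM GTSF1 partner protein. Uncleaved targets were then sequenced and normalised to depth and to weakly complementary targets. Data from three trials were pooled, with k3 capped at 0.0001 min^-1, and a burst-and-steady-state fit yielded the pre-steady-state cleavage rate.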
# 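Note: 1 nM active piRISC with 0.1 nM target library at 33 °C single turnover.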
row,Sequence,pre-steady-state target cleavage rate
1,CUUAAGGAGACCAUCUACACGGUUACCUAA,0.000286 ± 0.022
2,CUUAAGGAGAGGUUGUACUGGGUUACCUAA,0.00025 ± 0.019
3,CUUAAGGUCUGGAUCGUACUGGGUUACCUAA,0.00269 ± 0.006
4,CUUAAGGAGACGAUCUACUGGGUUACCUCAA,0.00227 ± 0.0036
5,CUUAAGGAGACGAUCUACUGGGUACCUAA,0.000115 ± 0.02
6,CUUAAGCUCAGGAUCUACUGCGUUACCUAA,0.0105 ± 0.0058
7,CUUAAGGAGUGGAACUACUGGGUUUCCUAA,0.000409 ± 0.019
8,CUUAAGGACUGGAUCUACUGCGUUACCUAA,0.00443 ± 0.012
9,CUUAAGGAGACCUACUACUGGGUAACCUUA,0.000153 ± 0.053
10,CUUAAGGAGACCAUCAACUGGGUUACCUUA,0.000432 ± 0.036
11,CUUAAGGAGACCUACUACUGGCAUACCUAA,0.000133 ± 0.032
12,CUUAAGGAGACGAUCUACGGGUUACCUAA,0.000947 ± 0.0085
13,CUUAAGGAGACCUUCUACUCGGUUACCAAA,0.000415 ± 0.022
14,CUUAAGGACUGCAUCUACUGGGAUACCUAA,0.00495 ± 0.011
15,CUUAAGGUGUGGAUCAACUGGGUUACCUAA,0.014 ± 0.0076
16,CUUAAGGAGACCUAGAUGAGCGUUACCAAA,0.000351 ± 0.025
17,CUUAAGGAGAGGAUCUUGUGGGUUACCUAA,0.000677 ± 0.014
18,CUUAAGGAGAGGAUCUACUGGGUUACUUAA,0.00398 ± 0.0049
19,CUUAAGGAGACCUUCUACUGGGUUACCUGA,0.000562 ± 0.017
20,CUUAAGGUCUGGAUCUUCUCGGUUACCUAA,0.00105 ± 0.011
21,CUUAAGGACUGGAUCUACUCGGUUACCUUA,0.000647 ± 0.025
22,CUUAAGGAGUGGAUGUACUGGGUUACGUAA,0.0019 ± 0.013
23,CUUAAGGACUGGAUCUUCUCGGUUACCUAA,0.000521 ± 0.028

row,Sequence,pre-steady-state target cleavage rate
1,CUUAAGGAGUGGAUCUAGUGGGUUACCUAA,0.0231 ± 0.0069
2,CUUAAGGAGUGGAUCACUGGGUUACCUAA,0.000946 ± 0.0076
3,CUUAAGCUCUGGAUCUACUCGGUUAGCUAA,0.000639 ± 0.013
4,CUUAAGGAGACGAUCUACUGGCUUACCUAA,0.000515 ± 0.022
5,CUUAAGGAGACCAUCUACUGGGUAACCUAA,0.00084 ± 0.0092
6,CUUAAGGAGUGGAUCUUCUCGGUUACCUAA,0.000565 ± 0.021
7,CUUAAGGAGAGGAUCUACUGGGGUACCUAA,0.00126 ± 0.007
8,CUUAAGGACUGGAUCUACUGGGUAAGCUAA,0.00155 ± 0.013
9,CUUAAGGAGAGGAUCUACUGGGUCACCUAA,0.00234 ± 0.0035
10,CUUAUCCUCUGGAUCAACUGGGUUUCCUAA,0.199 ± 0.072
11,CUUAAGGAGACCUAGAUGUGGGUUACCUA,0.000167 ± 0.045
12,CUUAACACUCUGGAUCUACUGGGUUACCUAA,0.0824 ± 0.024
13,CUUAAGGAGUCGAUCUACUGCGUUACCUAA,0.00114 ± 0.012
14,CUUAAGGAGAGGAUCUACUGCGUUACGUAA,0.000319 ± 0.028
15,CUUAAGGAGAGGAAGUACUGGGUUACCUAA,0.000369 ± 0.014
16,CUUAAGGAGAGGUUCUACUGGGUUACCAAA,0.00146 ± 0.0061
17,CUUAAGGAGACCUAGAUCUGGGUUAGCCUAA,0.000437 ± 0.034
18,CUUAAGGAGAGGAUCAACUGGGUUACCAAA,0.000203 ± 0.02
19,CUUAAGGAGACCUUCUACUGGGCUACCUAA,0.000501 ± 0.02
20,CUUAAGGAGACCUACUACUGGCUUACGUAA,0.000313 ± 0.029
21,CUUAAGGAGACCUACUACUGGGUUAGCUAA,0.000478 ± 0.014
22,CUUAAGGACUGCAUCUACUGGGUAACCUAA,0.00409 ± 0.01
23,CUUAAGGAGACCUAGUAGCUGGGUUACCUAA,0.000189 ± 0.053

row,Sequence,pre-steady-state target cleavage rate
1,CUUAAGGAGACCAUCUACUGGCAAACCUAA,0.000273 ± 0.022
2,CUUAAGGAGACCUAGUACUGGGUUACACUAA,0.000359 ± 0.02
3,CUUAAGGAGACCUACUACUGGGUUACCUAAA,0.00102 ± 0.009
4,CUUAAGGAGACGAACUACUGGGUUUCCUAA,0.000511 ± 0.012
5,CUUAAGGAGUGGAUCUACUGGGUUUCCUUA,0.00294 ± 0.0042
6,CUUAAGGAGAGGAUCUUACUGGGUUACCUAA,0.000677 ± 0.015
7,CUUAAGGAGACGAUCUACAGCGUUACCUAA,0.00233 ± 0.0059
8,CUUAAGGAGACGAUCUACUGGUUUACCUAA,0.00296 ± 0.0037
9,CUUAAGGAGACCUAGAUCUCGGUUACCUUA,0.000215 ± 0.044
10,CUUAAGGAGACCUAGAUGACCCAUACCUAU [g2:g7:cont:t1U],0.000123 ± 0.025
11,CUUAUCGUCAGGAUCUACUGGGUUACCUAA,0.03 ± 0.012
12,CUUAAGGAGAGGAUGUUCUGGGUUACCUAA,0.000172 ± 0.027
13,CUUAAGGUCUGGAUCAUGUGGGUUACCUAA,0.00248 ± 0.0041
14,CUUAAGGUCAGGAUCUACUGCGUUACCUAA,0.00479 ± 0.0061
15,CUUAAGGAGACCUAGAUGAGGGUUACCCAA,0.000381 ± 0.021
16,CUUAAGGAGAGGAUCUACUGGUUACCUAA,0.000785 ± 0.013
17,CUUAAGGAGACCAUUUACUGGGUUACCUAA,0.00156 ± 0.0053
18,CUUAAGCUCUGGAUCUACUGGGUUUGGAUA [g7:g24:cont:t1A],0.00313 ± 0.0059
19,CUUAAGGAGAGGAUCUAACUGGGUUACCUAA,0.000244 ± 0.02
20,CUUAUCCUCAGGAUCUACUGGCUUACCUAA,0.000901 ± 0.015
21,CUUAAGCUCUGGAUCUACUCGGUUUCCUAA,0.000518 ± 0.012
22,CUUAAGGAGAGGAUCUACUGUGUUACCUAA,0.00374 ± 0.0068
23,CUUAAGGAGACCUUCUACUGGGUUACCUUA,0.000718 ± 0.0097

row,Sequence,pre-steady-state target cleavage rate
1,CUUAAGGAGAGGAUCUACUGGGUUACCGAA,0.00169 ± 0.01
2,CUUAAGGAGACCUUCUUCUGGGUUACCAAA,0.000613 ± 0.015
3,CUUAAGGAGUGGAACUACUCGGUUACCUAA,0.000595 ± 0.023
4,CUUAAGGAGACCUUCUACGGGGUUACCUAA,0.00125 ± 0.0078
5,CUUAAGGAGACCUACUUCUGGGUUACCAAA,0.00034 ± 0.02
6,CUUAAGGAGACCAUUCUACUGGGUUACCUAA,0.00137 ± 0.0065
7,CUUAAGGAGACGAUAUACUGGGUUACCUAA,0.00131 ± 0.0056
8,CUUAAGGAGACCUUCUACUCGGUUACCUAA,0.000281 ± 0.0094
9,CUUAAGGAGACCAUCUACUCGGUUAGCUAA,0.000319 ± 0.017
10,CUUAACCUCUGGAUUCUACUGGGUUACCUAA,0.273 ± 0.093
11,CUUAAGGAGACCUACAACUGGGUUACCUUA,0.00017 ± 0.047
12,CUUAAGGAGACCUACUACUGGGUCACCUAA,0.000369 ± 0.029
13,CUUAAGGAGAGGAUGUACUGGGUUUCCUAA,0.0021 ± 0.0055
14,CUUAAGGAGUGGAUGUACUGGGUUUCCUAA,0.00756 ± 0.0079
15,CUUAUGCUCUGGAUCUACUGGCUUACCUAA,0.00179 ± 0.0037
16,CUUAAGGAGACCUAGAUGACGGUAACCUUA,0.000262 ± 0.025
17,CUUAAGGAGACCUUCUACGUGGGUUACCUAA,0.000676 ± 0.018
18,CUUAAGGACUGGAGUCUACUGGGUUACCUAA,0.00644 ± 0.0073
19,CUUAAGCUCUGGAUCUACUGGCUUUCCUAA,0.00054 ± 0.014
20,CUUAAGCUCUGGUUCUACUGGGUUUCCUAA,0.219 ± 0.085
21,CUUAAGGAGACCUUCUACUGGGUACCUAA,0.000343 ± 0.017
22,CUUAAGGACUGGAUCUACUGGGUUACAUAA,0.0044 ± 0.0074

# A second format for some results above:
row | Sequence | pre-steady-state target cleavage rate
12 | CUUAAGGAGACCUACUACUGGGUCACCUAA | 0.000369 ± 0.029
13 | CUUAAGGAGAGGAUGUACUGGGUUUCCUAA | 0.0021 ± 0.0055
14 | CUUAAGGAGUGGAUGUACUGGGUUUCCUAA | 0.00756 ± 0.0079

# As entered above:
# pre-steady-state target cleavage rate with CUUAAGGAGUGGAUGUACUGGGUUUCCUAA is entered as 0.00756 ± 0.0079
# pre-steady-state target cleavage rate with CUUAAGGAGACCUAGAUGAGCGUUACCAAA is entered as 0.000351 ± 0.025
